Data source: PubChem BioAssay AID504764 (Drosophila RNAi Screening Center, 2011)

Aim: 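Genome-wide screen for regulators of Notch-driven gene expression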 (primary screen)
Cell system: Drosophila Kc167 cells
Knock-down reagent: long dsRNA against Drosophila genes
Duration: about 5 days (4 days dsRNA, then 24 h after transfection)
Treatment: transfection of constitutively active membrane-tethered Notch lacking the extracellular domain, read 24 h later
Measured: 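Light from a Notch-responsive E(spl)m3 luciferase reporter under active Notch, with control-promoter and no-Notch reporter wells to normalise; raw counts from paired wells a and b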
Scale: induced reporter light, run 1, well a and induced reporter light, run 1, well b: higher = more light from the Notch target reporter with active Notch; control promoter light, run 1, well a and control promoter light, run 1, well b: higher = more light from the viral control promoter (cell number, transfection, viability); uninduced reporter light, run 1, well a: higher = more light from the Notch target reporter without active Notch
Rule for the call: 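Wells with low control signal or poorly matching duplicates excluded; duplicates averaged; per source plate, z beyond ±2 for induced/control log2 ratio or beyond ±1.8 for induced/uninduced marks a hit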
Calls: active = modifier hit (raised or lowered Notch signal); inactive = not a hit
In all, the deposit lists about 22,000 reagents; shown is an unselected part of those with a known target gene and a result. In the full data, 403 (1.9%) got an active call. 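Unnormalised raw counts per well; ratio z-scores behind the hit calls and whether each hit raises or lowers signal are not deposited.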 Names joined by + are all predicted targets of the reagent. Not given: the amount of reagent.

Coq4 + Gorab + frc [DRSC10383]
- induced reporter light, run 1, well a: 1.69e5
- induced reporter light, run 1, well b: 2.18e5
- control promoter light, run 1, well a: 2.83e5
- control promoter light, run 1, well b: 3.07e5
- uninduced reporter light, run 1, well a: 6690
- outcome: inactive

Eip63E (Ecdysone-induced protein 63E) [DRSC08658]
- induced reporter light, run 1, well a: 1.14e5
- induced reporter light, run 1, well b: 1.08e5
- control promoter light, run 1, well a: 91400
- control promoter light, run 1, well b: 25695
- uninduced reporter light, run 1, well a: 11965
- outcome: inactive

CG13771 [DRSC02277]
- induced reporter light, run 1, well a: 1.56e5
- induced reporter light, run 1, well b: 1.22e5
- control promoter light, run 1, well a: 2.07e5
- control promoter light, run 1, well b: 1.45e5
- uninduced reporter light, run 1, well a: 9265
- outcome: inactive

CG10337 [DRSC02038]
- induced reporter light, run 1, well a: 68650
- induced reporter light, run 1, well b: 70440
- control promoter light, run 1, well a: 99340
- control promoter light, run 1, well b: 1.86e5
- uninduced reporter light, run 1, well a: 5720
- outcome: inactive

CG11600 [DRSC14332]
- induced reporter light, run 1, well a: 11330
- induced reporter light, run 1, well b: 6505
- control promoter light, run 1, well a: 9265
- control promoter light, run 1, well b: 6242
- uninduced reporter light, run 1, well a: 2740
- outcome: inactive

tra2 (transformer 2) [DRSC07708]
- induced reporter light, run 1, well a: 1.55e5
- induced reporter light, run 1, well b: 1.61e5
- control promoter light, run 1, well a: 1.58e5
- control promoter light, run 1, well b: 1.59e5
- uninduced reporter light, run 1, well a: 16235
- outcome: inactive

Etf-QO (Electron transfer flavoprotein-ubiquinone oxidoreductase) [DRSC06111]
- induced reporter light, run 1, well a: 2.70e5
- induced reporter light, run 1, well b: 2.34e5
- control promoter light, run 1, well a: 3.57e5
- control promoter light, run 1, well b: 3.02e5
- uninduced reporter light, run 1, well a: 21480
- outcome: inactive

CG14760 [DRSC06495]
- induced reporter light, run 1, well a: 1.90e5
- induced reporter light, run 1, well b: 1.68e5
- control promoter light, run 1, well a: 1.92e5
- control promoter light, run 1, well b: 1.75e5
- uninduced reporter light, run 1, well a: 17460
- outcome: inactive

Bace (beta-site APP-cleaving enzyme) [DRSC02197]
- induced reporter light, run 1, well a: 2.08e5
- induced reporter light, run 1, well b: 1.86e5
- control promoter light, run 1, well a: 1.97e5
- control promoter light, run 1, well b: 2.02e5
- uninduced reporter light, run 1, well a: 10682
- outcome: inactive

CG7557 [DRSC10878]
- induced reporter light, run 1, well a: 1.19e5
- induced reporter light, run 1, well b: 1.13e5
- control promoter light, run 1, well a: 81565
- control promoter light, run 1, well b: 34520
- uninduced reporter light, run 1, well a: 10970
- outcome: inactive

PRL-1 (PRL-1 phosphatase) [DRSC03393]
- induced reporter light, run 1, well a: 77495
- induced reporter light, run 1, well b: 94925
- control promoter light, run 1, well a: 63990
- control promoter light, run 1, well b: 73060
- uninduced reporter light, run 1, well a: 5845
- outcome: inactive

eIF3c (eukaryotic translation initiation factor 3 subunit c) [DRSC06905]
- induced reporter light, run 1, well a: 9275
- induced reporter light, run 1, well b: 7095
- control promoter light, run 1, well a: 8195
- control promoter light, run 1, well b: 8395
- uninduced reporter light, run 1, well a: 905
- outcome: inactive

Not a retest: 2 of the entries above.
Etf-QO (Electron transfer flavoprotein-ubiquinone oxidoreductase) [DRSC06111]
- induced reporter light, run 1, well a: 2.70e5
- induced reporter light, run 1, well b: 2.34e5
- control promoter light, run 1, well a: 3.57e5
- control promoter light, run 1, well b: 3.02e5
- uninduced reporter light, run 1, well a: 21480
- outcome: inactive

CG14760 [DRSC06495]
- induced reporter light, run 1, well a: 1.90e5
- induced reporter light, run 1, well b: 1.68e5
- control promoter light, run 1, well a: 1.92e5
- control promoter light, run 1, well b: 1.75e5
- uninduced reporter light, run 1, well a: 17460
- outcome: inactive
